Test results taken from PubChem BioAssay AID2685 (National Center for Advancing Translational Sciences (NCATS), 2010).
Some of the results follow. These are further read-outs of the screen, such as a control signal, another cell line or another target. No call is given for them. The list favours compounds with an active or inconclusive main result. Words in brackets tell the shape of the fitted curve; partial curves, single points and poor fits give uncertain potencies.

Assay: qHTS Assay for Lipid Storage Modulators in Drosophila S3 Cells;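 as to cell number change: cells counted by Cell Tracker Red CMTPX staining in the red channel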
Details: BODIPY lipid droplet fluorescence, 18-24 h; for cell number change: measured here: cell count max response, cells fed with added oleic acid
Summary of the method: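 Drosophila S3 cells got compounds at several concentrations plus oleic acid (400 uM solution). Laser-scanning cytometry with 488 nm excitation read lipid droplets at 500-530 nm and cells at 575-640 nm. Percent activity was relative to 20 uM Triacsin C.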

[1] = measured here: cell number channel AC50, cells fed with added oleic acid
[2] = measured here: lipid fluorescence (Fed channel) AC50, cells fed with added oleic acid

COc1ccccc1N(CC(N)=O)S(=O)(=O)c1ccc(C)cc1
cell number change: -34%
AC50 [1]: 29.1 µM [falling, single point]
AC50 [2]: 32.6 µM [falling, single point]

CC1CN(CC(O)COc2ccc(C(C)C)cc2)CC(C)O1 (configuration not stated)
AC50 [1]: 6.51 µM [rising, single point]

CC(=O)Nc1ccc(S(=O)(=O)N2CCN(Cc3csc(C)n3)CC2)cc1
cell number change: 15.3%
AC50 [1]: 0.731 µM [rising, full curve, poor fit]

N#CCCn1cc(/C=C/C(=O)O)c(-c2ccc(F)cc2)n1
cell number change: 50.9%
AC50 [1]: 18.4 µM [rising, partial curve, poor fit]
AC50 [2]: 20.6 µM [rising, single point]

Cc1ccc(CS(=O)Cc2ccc(C(=O)N3CCN(c4ccccn4)CC3)o2)cc1 (configuration not stated)
AC50 [2]: 5.8 µM [falling, full curve, poor fit]

CCc1cccc(CC)c1NC(=O)C1CC(=O)N(c2ccc3c(c2)OCCO3)C1 (configuration not stated)
cell number change: 34.9%
AC50 [1]: 5.17 µM [rising, single point]
AC50 [2]: 6.51 µM [falling, single point]

O=C(COc1ccc2cc(Br)ccc2c1)N1CCCC1
cell number change: 8.11%
AC50 [2]: 29.1 µM [falling, single point]

CC(=O)N1CCC(N(CCN2CCOCC2)C(=S)Nc2cc(C)cc(C)c2)CC1
cell number change: 30.1%

S=C(NCCN(C1CCCCC1)C1CCCC1)Nc1cccc(Cl)c1
cell number change: -69.4%
AC50 [1]: 29.1 µM [falling, single point]
AC50 [2]: 29.1 µM [falling, single point]

N#Cc1cc2c(nc1SCc1ccccc1)CCCCC2
cell number change: -18.7%

COc1ccc(N2C(=O)CC(N3CCN(c4ccc(S(=O)(=O)N5CCCC5)cc4)CC3)C2=O)cc1 (configuration not stated)
cell number change: -9.71%
AC50 [2]: 6.51 µM [falling, single point]

NC(=O)CC(NC(=O)Cc1ccc(Cl)cc1)c1ccc(NCCOc2ccccc2)c([N+](=O)[O-])c1 (configuration not stated)
cell number change: 90.1%
AC50 [1]: 25.9 µM [rising, partial curve, poor fit]

Cc1ccc2[nH]c3c(=O)n(CC(=O)N4CC(C)CC(C)C4)ncc3c2c1 (configuration not stated)
cell number change: 25.2%
AC50 [1]: 0.13 µM [rising, full curve, poor fit]
AC50 [2]: 29.1 µM [falling, single point]

O=C(c1ccccc1)c1ccccn1
cell number change: -34.7%
AC50 [1]: 16.4 µM [falling, single point]
AC50 [2]: 29.1 µM [falling, single point]

Oc1ccccc1N1CCN(Cc2ncc(-c3ccccc3)o2)CC1
cell number change: 21.4%
AC50 [1]: 0.517 µM [rising, full curve, poor fit]
AC50 [2]: 29.1 µM [falling, single point]

COc1cc2c(cc1[N+](=O)[O-])n(C(C)C)c(=O)n2C(C)C
cell number change: -23.9%
AC50 [2]: 18.4 µM [falling, single point]

COc1ccc(S(=O)(=O)Nc2ccc3c(c2)OCO3)cc1C(=O)O
cell number change: 11.4%
AC50 [2]: 29.1 µM [rising, single point]

Cc1nn(-c2ccccc2)c(C)c1CN(C)C(=O)c1ccc(S(=O)(=O)NCc2ccco2)cc1
cell number change: -8.43%
AC50 [2]: 29.1 µM [rising, single point]

O=C(OCc1ccccc1)/C(=C/c1ccccc1Cl)NC(=O)c1ccco1
cell number change: -14.2%
AC50 [2]: 3.26 µM [rising, single point]

CC/C(=N\O)c1ccc(O)c(OC)c1
cell number change: -26.4%
AC50 [1]: 0.164 µM [falling, full curve]
AC50 [2]: 0.731 µM [falling, full curve]

CSCCC(NC(=O)/C(=C/c1ccc2c(c1)OCO2)NC(=O)c1cccc([N+](=O)[O-])c1)C(=O)O (configuration not stated)
cell number change: 25.3%
AC50 [1]: 0.651 µM [rising, full curve, poor fit]
AC50 [2]: 0.259 µM [rising, full curve, poor fit]

O=C(c1ccc(S(=O)(=O)N2CCCCCC2)cc1)N(c1ccccn1)C1CCCCC1
cell number change: 35.5%
AC50 [1]: 7.31 µM [rising, partial curve, poor fit]

Cc1[nH]nc2nc(SCC(=O)NCC3CCCO3)n(-c3ccc(Br)cc3)c(=N)c12 (configuration not stated)
cell number change: -25.8%

CCCCNC(=S)N1CCN(Cc2ccc3c(c2)OCO3)CC1
cell number change: -18.9%
AC50 [2]: 2.59 µM [rising, partial curve]

O=C(c1cc2cc([N+](=O)[O-])ccc2oc1=O)N1CCN(c2ncccn2)CC1
cell number change: -73.8%
AC50 [1]: 25.9 µM [falling, partial curve, poor fit]
AC50 [2]: 23.1 µM [falling, single point]

Nc1nnc(SCC(=O)Nc2cccc3ccccc23)s1
cell number change: 3.85%

Cc1cc(/C=C2\SC(=O)N(C)C2=O)c(C)n1-c1ccc(S(N)(=O)=O)cc1
cell number change: 10.8%

CCc1c(C)c(C#N)c2nc3ccccc3n2c1NCCN(C)C
cell number change: -2.83%
AC50 [1]: 6.51 µM [rising, single point]
AC50 [2]: 6.51 µM [rising, single point]

Fc1cccc(CSc2ccc3nnc(-c4ccccn4)n3n2)c1
cell number change: -6.45%
AC50 [2]: 1.16 µM [rising, single point]

CCCn1c(O)c(N=NC(=O)CNC(=O)c2ccncc2)c2ccccc21
cell number change: -0.885%
AC50 [2]: 29.1 µM [falling, single point]

CN(C(=O)c1cc2ccccc2oc1=O)C1(C)CCS(=O)(=O)C1 (configuration not stated)
cell number change: 34.8%
AC50 [1]: 29.1 µM [rising, single point]

CN(C)C(=S)NC1(C)CCS(=O)(=O)C1 (configuration not stated)
cell number change: -26.5%
AC50 [1]: 0.0164 µM [falling, partial curve, poor fit]
AC50 [2]: 0.231 µM [falling, full curve]

C/C(CCc1ccc2c(c1)OCO2)=N\NC(=S)NC(C)C
cell number change: 31.2%
AC50 [1]: 2.06 µM [rising, partial curve]
AC50 [2]: 8.2 µM [rising, partial curve, poor fit]

CCOC(=O)C1CCN(C(=O)COC(=O)C2CCN(S(=O)(=O)c3ccc4c(c3)OCCO4)CC2)CC1
cell number change: 66.3%
AC50 [1]: 20.6 µM [rising, partial curve, poor fit]

O=C(COc1ccc2c3c(c(=O)oc2c1)CCCC3)N1CCN(c2ccccc2)CC1
cell number change: -12.1%
AC50 [2]: 0.651 µM [falling, partial curve, poor fit]

CCOc1ccccc1C(=O)N1CCN=C1SC
cell number change: 0.237%

COc1cc(S(=O)(=O)N2CCOCC2)ccc1NC(=O)CSc1nnc(N)s1
cell number change: 2.65%
AC50 [2]: 8.2 µM [rising, partial curve, poor fit]

COc1ccc(OC)c(/C=C/C(=O)c2ccc3c(c2)OCCO3)c1
cell number change: -8.62%
AC50 [2]: 32.6 µM [falling, single point]

O=[N+]([O-])c1ccc(OCCOc2ccccc2/C=N/n2cnnc2)cc1
cell number change: -0.368%

Cn1c(-c2sc3ccccc3c2Cl)n[nH]c1=S
cell number change: 57.4%
AC50 [1]: 16.4 µM [rising, partial curve]
AC50 [2]: 1.46 µM [rising, full curve, poor fit]

CCc1nn2c(N3CCOCC3)cc(C)nc2c1-c1ccc(F)cc1
AC50 [1]: 0.58 µM [rising, full curve, poor fit]
AC50 [2]: 4.61 µM [rising, single point]

Cc1cc(C)nc(NS(=O)(=O)c2ccc(NC(=O)CN3C(=O)C4CC=CCC4C3=O)cc2)n1 (configuration not stated)
cell number change: 12.6%
AC50 [1]: 0.651 µM [falling, full curve]

O=C(COc1ccc(Cl)cc1)NCCNC(=O)c1ccccn1
cell number change: 5.71%

O=C(/C=C\c1cccs1)N1CCN(Cc2ccc3c(c2)OCO3)CC1
cell number change: 6.76%
AC50 [1]: 0.00411 µM [rising, full curve, poor fit]

O=C1/C(=C/Nc2ccc3c(c2)OCO3)CCc2ccccc21
cell number change: 18%

COc1ccc(-c2csc3ncnc(N4CCN(S(=O)(=O)c5ccccc5C#N)CC4)c23)cc1
AC50 [2]: 5.17 µM [falling, partial curve]

COc1ccc(CN(C)C(=O)c2cccc(Oc3ccccc3)c2)c(OC)c1OC
cell number change: -2.08%
AC50 [2]: 25.9 µM [rising, single point]

O=C(Nc1ccc2oc(-c3ccc(Cl)c(Cl)c3)nc2c1)c1ncn[nH]1
AC50 [1]: 0.411 µM [rising, full curve]

O=C(NCc1ccc2c(c1)OCO2)c1ccc2c(c1)C(=O)N(CC1CCCO1)C2=O (configuration not stated)
cell number change: -6.88%
AC50 [2]: 0.651 µM [rising, single point]

O=C(CSc1ccc2ccccc2c1)Nc1ccncc1
cell number change: -25.2%
AC50 [2]: 29.1 µM [falling, single point]

CCOC(=O)c1sc(NC(=O)c2cccnc2)nc1C
cell number change: 46.2%
AC50 [1]: 7.31 µM [rising, partial curve, poor fit]

O=C(COC(=O)c1ccccc1Br)NCCC1=CCCCC1
cell number change: 42.6%
AC50 [1]: 14.6 µM [rising, single point]
AC50 [2]: 0.146 µM [falling, full curve, poor fit]

CCc1c(C2(O)CCCCC2)[nH]c2ncccc12
cell number change: 7.24%
AC50 [2]: 0.103 µM [falling, full curve, poor fit]

O=C(CSc1ccc(Cl)cc1)Nc1cccc(-c2nc3ccccc3[nH]2)c1
cell number change: -42.9%
AC50 [1]: 5.8 µM [falling, partial curve]
AC50 [2]: 9.2 µM [falling, partial curve]

CN1C(=S)SC(C)(NO)C1(C)C (configuration not stated)
AC50 [2]: 29.1 µM [falling, single point]

CCOC(=O)c1nc(C)sc1-c1ccnn1S(=O)(=O)c1ccccc1C(F)(F)F
cell number change: 19.3%
AC50 [2]: 2.06 µM [rising, full curve, poor fit]

O=C(Nc1cc(Cl)cc(Cl)c1)C1CCC(=O)N1Cc1ccccc1Cl (configuration not stated)
cell number change: -137%
AC50 [1]: 18.4 µM [falling, partial curve]
AC50 [2]: 29.1 µM [falling, single point]
